In patent US12636284B2, “Compositions for use in the prevention and/or treatment of intellectual disability and neurodegenerative diseases in a subject with down syndrome” (UNIVERSITA' DEGLI STUDI DI ROMA “LA SAPIENZA”, priority 2021, dated 2026):
At least one structure is not confirmed: it was looked up by name or label, or the drawing left a doubt.

How the values were obtained:
DYRK1A protein = DYRK1A protein levels in primary hippocampal neurons isolated from Ts2Cje mice; format: cell-based, mouse; conditions: 1, 5, 10 μM for 24 hours, vs untreated Ts2Cje
Protocol: (§1) For Western blots, 20 μg of proteins from the hippocampus of mice belonging to the four experimental groups were separated by 4-15% SDS-PAGE Criterion™ TGX (Tris-Glyicine eXtended) Stain-Free™ (Bio-rad, Hercules, CAUSE). This type of gel allows a rapid acquisition of the protein run in the ultraviolet (UV) by Chemidoc™ MP imaging systems (Bio-rad, Hercules, CA, USA). Therefore, the gel, once the image has been acquired, represents the total of the loaded proteins (Total Load), which will then be used to normalize the specific proteins to be examined. After electrophoresis and gel imaging, proteins are transferred via the semi-dry TransBlot Turbo apparatus (Bio-Rad Laboratories) onto nitrocellulose membranes (Bio-Rad, Hercules, CA, USA). Nitrocellulose membranes are blocked with 3% bovine serum albumin (BSA) in a solution of Tween 20-TBS and incubated overnight at 4° C. using specific primary antibodies: p(T216)-GSK3B (1:1000, Santa Cruz, #sc-135653), p(S9)-GSK3β (1:1000, Cell Signaling, #5558S), GSK3β (1:1000 Abcam, #93926) and DYRK1A (1:1000, Cell Signaling, #8765S), MAPK44/42 (1:1000, Cell Signaling, #9102), p(Thr202/Tyr204)-MAPK44/42 (1 1000, Cell Signaling, #9101), Akt (1:2000, Bio-Rad, # vma00253K), p(S473) Akt (1:1000, Cell Signaling, #4060S). […] Finally, the results obtained were analyzed using the ImageLab program (Bio-rad, Hercules, CA, USA). […]

GSK3b protein = test: GSK3b activation (pSer9/pTyr216 ratio) in primary hippocampal neurons isolated from Ts2Cje mice; format: cell-based, mouse; conditions: 1, 5, 10 μM for 24 hours
Protocol: as §1, with “CriterionTM […]” for “Criterion™ TGX (Tris-Glyicine eXtended) Stain-Free™”, “This type of gel allows a rapid acquisition of the protein run in the ultraviolet (UV) by Chemidoc™ MP imaging systems (Bio-rad, Hercules, CA, USA).” left out, “p([…])-GSK3B” for “p(T216)-GSK3B”, “p[…])-MAPK44/42” for “p(Thr202/Tyr204)-MAPK44/42”, “#4060S). After three washes with a T-TBS buffer solution, membranes were incubated for 1 hour at room temperature with the secondary antibodies.” for “#4060S).”

Row | SMILES | levels of the DYRK1A protein in Ts2Cje neurons (DYRK1A protein) | activity of the GSK3B protein in Ts2Cje neurons (GSK3b protein)
1 | CC#CCn1c(N2CCC[C@@H](N)C2)nc2c1c(=O)n(Cc1nc(C)c3ccccc3n1)c(=O)n2C [linagliptin] | significant reduction | –
2 | N#C[C@@H]1C[C@@H]2C[C@@H]2N1C(=O)[C@@H](N)C12CC3CC(CC(O)(C3)C1)C2 [saxagliptin] | significant reduction | significant increase
